Test results: US7591861B2, “Processes to pre-treat hair with organic solvents” (The Procter & Gamble Company, priority 2007, dated 2009)

Experiment: Hair treatment protocol: solvent pre-treatment, then oxidative dyeing, colour strength K/S
Conditions: hair switch soaked 5 minutes in solvent, then Nice n' Easy level 3 oxidative colorant 30 minutes at 30° C.; change vs. DI water

Row | SMILES | K/S vs. DI Water
1 | CC(=O)CC(C)C [4-methyl-2-pentanone] | +66%
2 | O=C1CCCCC1 [Cyclohexanone] | +17%
